For at least one entry, the source does not settle the construct or the ends of the probe. For part of these data: A negative result means that nothing was seen under these conditions.
Columns and labels:
GST-BrTCP7 = test: EMSA; conditions: 250-fold unlabeled WT probe eliminates the complex; EMSA: 1 ug protein, 2e-6 umol biotin probe, binding buffer (composition and pH not given), 25 min at 30 C, 6% native PAGE, chemiluminescent detection; recombinant protein; protein details: N-terminal GST (pGEX-4T-1); label: 5' biotin
GST = test: EMSA; conditions: tag-only control, same outcome stated for BrRCCR probe; EMSA: 1 ug protein, 2e-6 umol biotin probe, binding buffer (composition and pH not given), 25 min at 30 C, 6% native PAGE, chemiluminescent detection; recombinant protein; protein details: GST; label: 5' biotin

Question: Does “ATGAGAAGAATTTCGTGGTGGGTGGGTCCCATATGACGGAGATAAAGAAC (double strand) [BrRCCR promoter probe (WT)]” bind (GST-BrTCP7)?
Answer: binds

Question: What does the source list for “GCTAGACAGATACATACCTCCGGTCCCACCTGAACCAATCATAGCCTGGC (double strand) [BrOPR3 promoter probe (WT)]”?
Answer: binding result (GST-BrTCP7): binds; binding result (GST): no binding
